Record: PubChem BioAssay AID1508597 (Cure First, 2020)

Screen: 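Genes whose silencing sensitises or protects ovarian cancer cells against rucaparib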 (primary screen)
System: human ovarian carcinoma lines grown from tumours: OCI-P5x (papillary serous) and OCI-C5x (clear cell)
Reagents: siRNA pool against human genes, 1.25 pmol siRNA per well
Timing: 72 h or 96 h, depending on the cell culture
Treatment: rucaparib 20 µM (about IC30) or vehicle, present until read-out
Rucaparib or vehicle: Rucaparib
Cell line: OCI-P5x (serous)
Measured: 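Luminescent ATP-based viability assay read 72 or 96 h after transfection, depending on culture, given as normalised percent viability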
Scale: viability, normalised: higher = more viable cells remaining
Rule for the call: 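Active when normalised viability falls below 80 percent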
Calls: active = viability under 80%; inactive = viability 80% or more
Shown is a random part of the about 2,100 reagents, in one setting of the screen. 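Calls flag viability under 80% in either arm, not effects specific to rucaparib; the reference for percent is not stated.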 A reagent listed more than once was tested more than once; the source does not tell the runs apart. Not stated in the record: the 100% reference.

EXO1, technical replicate 1
- viability, normalised (%): 64.2
- activity call: active

EXO1, technical replicate 2
- viability, normalised (%): 82.2
- activity call: inactive

EXO1, technical replicate 3
- viability, normalised (%): 71.1
- activity call: active

POU5F1B, technical replicate 1
- viability, normalised (%): 64.9
- activity call: active

POU5F1B, technical replicate 2
- viability, normalised (%): 57.5
- activity call: active

POU5F1B, technical replicate 3
- viability, normalised (%): 65.8
- activity call: active

UVRAG, technical replicate 1
- viability, normalised (%): 84.5
- activity call: inactive

UVRAG, technical replicate 2
- viability, normalised (%): 79.2
- activity call: active

UVRAG, technical replicate 3
- viability, normalised (%): 76.2
- activity call: active

FLT4, technical replicate 1
- viability, normalised (%): 57.8
- activity call: active

FLT4, technical replicate 1
- viability, normalised (%): 129
- activity call: inactive

FLT4, technical replicate 2
- viability, normalised (%): 119
- activity call: inactive

FLT4, technical replicate 2
- viability, normalised (%): 71.9
- activity call: active

FLT4, technical replicate 3
- viability, normalised (%): 121
- activity call: inactive

FLT4, technical replicate 3
- viability, normalised (%): 65.3
- activity call: active

KIF18A, technical replicate 1
- viability, normalised (%): 49.9
- activity call: active

KIF18A, technical replicate 1
- viability, normalised (%): 57.3
- activity call: active

KIF18A, technical replicate 2
- viability, normalised (%): 49.1
- activity call: active

KIF18A, technical replicate 2
- viability, normalised (%): 78.6
- activity call: active

KIF18A, technical replicate 3
- viability, normalised (%): 82.9
- activity call: inactive

KIF18A, technical replicate 3
- viability, normalised (%): 47.8
- activity call: active

VAX2, technical replicate 1
- viability, normalised (%): 87.6
- activity call: inactive

VAX2, technical replicate 2
- viability, normalised (%): 70.9
- activity call: active

VAX2, technical replicate 3
- viability, normalised (%): 77.1
- activity call: active

EEF2K, technical replicate 1
- viability, normalised (%): 78.6
- activity call: active

EEF2K, technical replicate 2
- viability, normalised (%): 78
- activity call: active

EEF2K, technical replicate 3
- viability, normalised (%): 50.2
- activity call: active

DLG1, technical replicate 1
- viability, normalised (%): 64.3
- activity call: active

DLG1, technical replicate 2
- viability, normalised (%): 92.6
- activity call: inactive

DLG1, technical replicate 3
- viability, normalised (%): 96.1
- activity call: inactive

SYK, technical replicate 1
- viability, normalised (%): 68.9
- activity call: active

SYK, technical replicate 2
- viability, normalised (%): 75.5
- activity call: active

SYK, technical replicate 3
- viability, normalised (%): 84
- activity call: inactive

Records above whose gene name starts with P or p:
POU5F1B, technical replicate 1
- viability, normalised (%): 64.9
- activity call: active

POU5F1B, technical replicate 2
- viability, normalised (%): 57.5
- activity call: active

POU5F1B, technical replicate 3
- viability, normalised (%): 65.8
- activity call: active
